These results are taken from paper PMC8440642.

Amino acid sequences for entries named in this document (tags omitted). A change or cut given only in a name is not applied to a line headed by its entry.
UniProt P67775: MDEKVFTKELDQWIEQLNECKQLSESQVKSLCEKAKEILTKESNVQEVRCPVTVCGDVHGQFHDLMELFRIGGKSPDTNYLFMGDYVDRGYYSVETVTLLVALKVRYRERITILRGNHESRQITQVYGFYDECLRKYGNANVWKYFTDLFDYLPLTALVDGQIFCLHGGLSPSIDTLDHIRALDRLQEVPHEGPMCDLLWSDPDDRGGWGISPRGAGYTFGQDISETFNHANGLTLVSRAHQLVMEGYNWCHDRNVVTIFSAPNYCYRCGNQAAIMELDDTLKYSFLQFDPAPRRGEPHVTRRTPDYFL
UniProt Q9BUL8: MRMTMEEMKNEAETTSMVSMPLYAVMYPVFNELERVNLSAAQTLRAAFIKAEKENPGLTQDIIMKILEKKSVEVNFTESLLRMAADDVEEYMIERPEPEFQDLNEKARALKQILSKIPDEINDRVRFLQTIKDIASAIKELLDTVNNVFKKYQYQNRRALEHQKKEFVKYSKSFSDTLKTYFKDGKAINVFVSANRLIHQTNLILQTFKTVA
UniProt P46937: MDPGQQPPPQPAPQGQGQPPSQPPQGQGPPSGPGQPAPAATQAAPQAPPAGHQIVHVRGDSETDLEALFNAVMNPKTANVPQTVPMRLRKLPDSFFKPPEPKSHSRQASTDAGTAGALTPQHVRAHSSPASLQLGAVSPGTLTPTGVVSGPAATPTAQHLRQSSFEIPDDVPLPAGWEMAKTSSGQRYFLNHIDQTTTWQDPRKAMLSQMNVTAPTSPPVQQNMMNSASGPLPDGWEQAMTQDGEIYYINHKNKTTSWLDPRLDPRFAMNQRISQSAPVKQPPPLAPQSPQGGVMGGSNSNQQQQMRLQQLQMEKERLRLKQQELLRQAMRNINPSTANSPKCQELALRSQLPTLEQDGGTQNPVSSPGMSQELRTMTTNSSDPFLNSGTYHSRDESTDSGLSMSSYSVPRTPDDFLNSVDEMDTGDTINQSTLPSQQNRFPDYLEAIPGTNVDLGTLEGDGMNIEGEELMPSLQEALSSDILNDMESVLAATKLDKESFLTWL

Experiment [1] addresses Protein phosphatase type 2A catalytic subunit (human (endogenous in Hep3B and HepG2)) (UniProt P67775). Briefly: co-IP; Pierce Co-IP kit; about 1000 ug lysate protein of Hep3B or HepG2^PDCD10 cells with 10 ug IP antibody or control IgG at 4 °C overnight, magnetic beads 1 h at room temperature, western blot. In general terms: A western blot detects proteins with antibodies after separation by electrophoresis.

For experiment [2] the target is unchanged. Briefly: co-IP; Pierce Co-IP kit; lysates of Hep3B^shPDCD10, HepG2^PDCD10 and their control cells (PDCD10 knock-down or overexpression), 10 ug IP antibody or control IgG at 4 °C overnight, western blot.

Results are given in words; binding and its absence hold for the method and conditions named. Binding seen in cells or lysates may run through a third protein. Binding can be weak; no strength is given.

In the case of “Programmed cell death 10 (from UniProt Q9BUL8 1-212)”, in experiment [1], the binding result is “binds”.
The same measure, in the same setting: next, “Programmed cell death 10, overexpressed from full-length cDNA in HepG2 cells (from UniProt Q9BUL8 1-212)”: “binds”.
Regarding YAP (from UniProt P46937 1-504), the binding entry in experiment [2] is “binds”.
